Assay results reported in US11197911B2, “Peptidylic inhibitors targeting C9ORF72 hexanucleotide repeat-mediated neurodegeneration” (The Chinese University of Hong Kong, priority 2016, dated 2021).
“Also recorded” adds a separate entry of the source. Part of at least one peptide drawing is inferred or uncertain, most often the ends. No end group written: not given here.

Columns and labels:
[1] = system: (GGGGCC)66-expressing SK-N-MC cells; assay: LDH cytotoxicity assay, (GGGGCC)66-induced cell death; assay type: cell-based; conditions: 48 h; for effect on (GGGGCC)66-induced cell death (LDH): 10 μM
Description: SK-N-MC cells were kindly provided by Prof. Dobrila D. Rudnicki (Johns Hopkins University, USA). […] Leonard Petrucelli (Mayo Clinic, USA).
For IC50 detection, various amount of TAT-P3L, 0.1, 0.5, 1, 10, 50, 100, 500, 1,000 and 10,000 nM were added to individual culture wells after transfection. Forty eight hours after treatment, LDH enzyme activity in the cell culture medium was measured as described before. Experimental groups were normalized to the untransfected control. After normalization, data were analyzed using the dose response-inhibition curve (nonlinear regression-variable slope) to determine the IC50 value (Prism6 software, GraphPad Software, Inc.).

[2] = system: poly-GR protein; assay: Western blotting of RAN translation product poly-GR; assay type: cell-based; conditions: (GGGGCC)66-expressing SK-N-MC cells; 10 μM; 48 h; GAPDH loading control
[3] = system: poly-GA protein; assay: Western blotting of RAN translation product poly-GA; assay type: cell-based; conditions: (GGGGCC)66-expressing SK-N-MC cells; 10 μM; 48 h; GAPDH loading control
[4] = system: poly-GP protein; assay: Western blotting of RAN translation product poly-GP; assay type: cell-based; conditions: (GGGGCC)66-expressing SK-N-MC cells; 10 μM; 48 h; GAPDH loading control
[5] = system: NCL; assay: Immunostaining, nucleolar stress marker NCL localization; assay type: cell-based; conditions: (GGGGCC)66-expressing SK-N-MC cells; 10 μM; 48 h
Description: (§1) SK-N-MC cells were seeded and grown on glass coverslips at a density of 0.8×10^5 in 24-well plate. Forty eight hours after treatment, cells were fixed with 4% paraformaldehyde followed by three times wash with 1×PBS. Cells were then permeabilized in 0.5% Triton X-100 for 10 min at room temperature followed by three washes with 1×PBS. After washing step, cells were blocked with 5% BSA in 1×PBS for 1 h at room temperature. The NCL (1:500, Abcam) or B23 (1:500, Abcam) antibody was then applied with 5% BSA (1:500) 2 h at room temperature. Once the primary antibody was removed, Cells were washed three times with 1×PBS and incubated with an anti-rabbit Cy3 or an anti-mouse Cy3 secondary antibody (1:400, Jackson Labs) 1 h at room temperature. After washing with 1×PBS, nuclei were counterstained with Hoechst 33342 (1 μg/ml, Thermo Fisher Scientific) prior to mounting coverslips. Images were obtained on an OLYMPUS FV1000 IX81-TIRF confocal microscope. A single focal plan was obtained through the centre of the nucleus. The method of quantification of NCL and B23 nuclear area fold change was described previously^7. In order to quantify both dispersed NCL and dense nucleolar NCL, a threshold setting in ImageJ ranging from 25-100 was used to measure the pixel area of NCL relative to the area of the nucleus outlined by the Hoechst staining. […]

[6] = system: nucleophosmin (B23); assay: Immunostaining, nucleolar stress marker B23 localization; assay type: cell-based; conditions: (GGGGCC)66-expressing SK-N-MC cells; 10 μM; 48 h
Description: as §1

[7] = system: UAS-(GGGGCC)36 flies; assay: External eye assay; assay type: in vivo, Drosophila; conditions: GMR-Gal4/UAS-(GGGGCC)36 flies; 100 μM feeding; 1 day-old adults
Description: Flies were raised at 25° C. on cornmeal medium supplemented with dry yeast. For […], third instar larvae were feed with 100 μM of TAT-P3L or TAT-P3LS1 dissolved in 2% sucrose solution for 2 h and then continued to culture in standard fly food. Eye images of 1 day-old adult of UAS-(GGGGCC)3 or UAS-(GGGGCC)36 flies were captured using a SPOT Insight CCD camera (Diagnostic instruments Inc.) on an Olympus SZX-12 stereomicroscope.

[8] = system: UAS-(GGGGCC)36 flies; assay: Climbing ability assay; assay type: in vivo, Drosophila; conditions: elavGS flies, RU486 200 μM plus peptide 50 μM in food, 10, 15, 20 and 25 dpe
Description: Fly climbing ability was analyzed by negative geotaxis.

[9] = system: UAS-(GGGGCC)36 flies; assay: Lifespan assay; assay type: in vivo, Drosophila

Sequence	effect on (GGGGCC)66-induced cell death (LDH) [1]	effect on (GGGGCC)66-induced cell death (LDH enzyme activity in medium) ([1]; 0.1, 1, 10 and 20 μM peptide, listed as TAT-RRM2-P1)	poly-GR protein expression [2]	poly-GA protein expression [3]	poly-GP protein expression [4]	subcellular localization of NCL [5]	subcellular localization of B23 [6]	eye degeneration (scar formation in eye) [7]	climbing defect [8]	lifespan (in words) ([9]; UAS-(GGGGCC)36, elavGS flies, RU486 200 μM plus peptide 50 μM in food)	lifespan of treated disease flies ([9]; UAS-(GGGGCC)36 flies, about 35 days untreated)
YGRKKRRQRRRAEIRLVSKDGKSKGIAYIEFK [TAT-P3L]	significantly suppressed cell death	dose-dependently suppression; also recorded: significantly suppressed; also recorded: dose-dependently suppressed	significantly suppressed; also recorded: suppressed poly-GR protein expression; also recorded: significantly suppress	significantly suppressed; also recorded: suppressed poly-GA protein expression; also recorded: significantly suppress	significantly suppressed; also recorded: suppressed poly-GP protein expression; also recorded: significantly suppress	restored the normal subcellular localization; also recorded: inhibited the mislocalization of NCL protein	restored the normal subcellular localization; also recorded: inhibited the translocation of B23 protein from nucleolus to nucleoplasm	significantly inhibited the scar formation in eye; also recorded: inhibited eye degeneration	significantly rescued the climbing defect	extended lifespan	about 50 days
YGRKKRRQRRRGGEDIKSRVEAASILYFIKKK [TAT-P3LS1, reference compound]	showed no effect on inhibiting cell death		but not TAT-P3LS1, significantly suppressed	but not TAT-P3LS1, significantly suppressed	but not TAT-P3LS1, significantly suppressed			but not TAT-P3LS1 significantly inhibited			
